These results are taken from article PMC3723664.

By UniProt entry, the sequences of proteins in these tests, tags left out.
UniProt Q96RD7: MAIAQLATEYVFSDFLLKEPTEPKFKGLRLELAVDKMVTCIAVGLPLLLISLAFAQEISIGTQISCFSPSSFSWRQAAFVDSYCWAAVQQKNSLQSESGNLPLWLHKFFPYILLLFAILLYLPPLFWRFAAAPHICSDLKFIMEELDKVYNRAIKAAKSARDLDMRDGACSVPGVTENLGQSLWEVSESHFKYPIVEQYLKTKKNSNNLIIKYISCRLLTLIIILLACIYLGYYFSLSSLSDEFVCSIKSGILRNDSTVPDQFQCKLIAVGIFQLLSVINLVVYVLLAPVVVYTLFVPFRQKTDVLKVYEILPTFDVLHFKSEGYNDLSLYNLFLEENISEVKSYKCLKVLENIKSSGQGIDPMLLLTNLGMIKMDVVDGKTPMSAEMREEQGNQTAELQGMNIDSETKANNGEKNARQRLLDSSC

This assay addresses T1, purinergic receptor P2X4 (human (endogenous in GEC)) (UniProt Q99571).
T1 sequence: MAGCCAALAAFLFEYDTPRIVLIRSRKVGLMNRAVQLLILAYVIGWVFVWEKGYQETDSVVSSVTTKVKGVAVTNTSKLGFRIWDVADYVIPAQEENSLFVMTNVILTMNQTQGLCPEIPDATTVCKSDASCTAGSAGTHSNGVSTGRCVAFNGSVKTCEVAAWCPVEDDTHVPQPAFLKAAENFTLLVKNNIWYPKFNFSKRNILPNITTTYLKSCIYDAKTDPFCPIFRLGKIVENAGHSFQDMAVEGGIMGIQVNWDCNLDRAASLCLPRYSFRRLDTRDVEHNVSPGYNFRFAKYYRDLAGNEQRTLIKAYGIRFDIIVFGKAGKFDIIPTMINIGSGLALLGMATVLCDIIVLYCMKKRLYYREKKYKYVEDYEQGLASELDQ
Briefly: co-IP; GEC extracts incubated 3 h at 4°C with Dynabeads pre-coupled with polyclonal anti-P2X4 antibody; Dynabeads as control; immunoblots with anti-P2X7, anti-pannexin-1, anti-P2X4.

No constants are given. Whether binding was seen depends on the method and setting. Binding seen in cells or lysates may run through a third protein. Some entries that bind do so weakly or less than the wild type.

For pannexin-1 (from UniProt Q96RD7 1-426), the binding entry was “binds”.

B1: purinergic receptor P2X7 (receptor, UniProt Q99572 1-595)
chain: MPACCSCSDVFQYETNKVTRIQSMNYGTIKWFFHVIIFSYVCFALVSDKLYQRKEPVISSVHTKVKGIAEVKEEIVENGVKKLVHSVFDTADYTFPLQGNSFFVMTNFLKTEGQEQRLCPEYPTRRTLCSSDRGCKKGWMDPQSKGIQTGRCVVYEGNQKTCEVSAWCPIEAVEEAPRPALLNSAENFTVLIKNNIDFPGHNYTTRNILPGLNITCTFHKTQNPQCPIFRLGDIFRETGDNFSDVAIQGGIMGIEIYWDCNLDRWFHHCRPKYSFRRLDDKTTNVSLYPGYNFRYAKYYKENNVEKRTLIKVFGIRFDILVFGTGGKFDIIQLVVYIGSTLSYFGLAAVFIDFLIDTYSSNCCRSHIYPWCKCCQPCVVNEYYYRKKCESIVEPKPTLKYVSFVDESHIRMVNQQLLGRSLQDVKGQEVPRPAMDFTDLSRLPLALHDTPPIPGQPEEIQLLRKEATPRSRDSPVWCQCGSCLPSQLPESHRCLEELCCRKKPGACITTSELFRKLVLSRHVLQFLLLYQEPLLALDVDSTNSRLRHCAYRCYATWRFGSQDMADFAILPSCCRWRIRKEFPKSEGQYSGFKSPY
Turning to B1, the binding result is recorded as “binds”.
